According to publication PMC12120773, “SIRT4 Promotes Pancreatic Cancer Stemness by Enhancing Histone Lactylation and Epigenetic Reprogramming Stimulated by Calcium Signaling” (Advanced Science, 2025):
These are yes or no findings as the source states them, for the method shown. Binding seen in cells or lysates may run through a third protein. These calls come from enrichment with a bait or labelling near it, and not all partners need be listed. Sequences can lack the tags named with a protein.

Sequences of proteins named here, by UniProt entry; tags and fusion partners are left off.
UniProt P06733: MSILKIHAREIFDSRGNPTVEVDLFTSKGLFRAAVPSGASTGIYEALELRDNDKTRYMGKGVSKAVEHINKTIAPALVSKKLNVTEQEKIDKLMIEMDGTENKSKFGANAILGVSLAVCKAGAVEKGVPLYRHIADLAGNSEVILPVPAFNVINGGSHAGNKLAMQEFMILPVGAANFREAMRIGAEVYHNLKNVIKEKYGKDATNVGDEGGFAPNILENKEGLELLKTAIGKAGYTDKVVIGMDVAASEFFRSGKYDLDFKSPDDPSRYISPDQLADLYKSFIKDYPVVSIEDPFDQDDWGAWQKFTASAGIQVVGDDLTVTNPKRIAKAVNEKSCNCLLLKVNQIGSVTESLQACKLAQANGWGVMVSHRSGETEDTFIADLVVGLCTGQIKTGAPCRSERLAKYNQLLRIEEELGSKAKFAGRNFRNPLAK

Target: T1, SIRT4‐FLAG (human) (UniProt Q9Y6E7)
T1 sequence: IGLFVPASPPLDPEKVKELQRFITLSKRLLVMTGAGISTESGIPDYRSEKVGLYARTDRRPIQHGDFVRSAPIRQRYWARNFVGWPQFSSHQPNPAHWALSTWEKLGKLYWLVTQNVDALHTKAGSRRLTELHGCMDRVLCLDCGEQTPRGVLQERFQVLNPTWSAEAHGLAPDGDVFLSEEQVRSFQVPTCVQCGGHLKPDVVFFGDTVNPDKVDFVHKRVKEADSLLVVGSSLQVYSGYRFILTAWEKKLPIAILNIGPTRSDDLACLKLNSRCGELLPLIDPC
Experiment: affinity purification with mass spectrometry; anti‐FLAG M2 beads on lysates of PANC‐1 cells expressing SIRT4‐FLAG or empty vector; SDS‐PAGE and silver stain; bands specific to SIRT4‐FLAG identified by mass spectrometry

- binding: binds
Substance: Enolase 1 (ENO1), endogenous in PANC‐1 (from UniProt P06733 1-434) (enzyme)
